Where two headings read alike, the source gives them in different places. Results are given in words; binding and its absence hold for the method and conditions named. In cells and extracts the contact can be indirect. Some results given as binding are weak or reduced against the parent protein; the word gives no strength.
Tests used:
Experiment in all cases: co-IP
ALFA-CD53 (WT) (human) [1] = biological target: T1, ALFA-CD53 (WT) (human) (UniProt P19397)
T1 sequence (chain, N-glycosylation at N129 and N148 (broad repertoire of glycoforms)): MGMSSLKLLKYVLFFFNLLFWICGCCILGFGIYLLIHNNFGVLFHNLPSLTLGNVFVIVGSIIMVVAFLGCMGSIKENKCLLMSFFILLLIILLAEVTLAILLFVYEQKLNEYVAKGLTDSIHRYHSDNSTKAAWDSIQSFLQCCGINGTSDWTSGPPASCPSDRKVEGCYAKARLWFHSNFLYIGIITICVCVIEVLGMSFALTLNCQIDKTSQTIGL

Chains of the proteins cited; added tags and fusions are not shown. Residues count along the entry.
UniProt P08575, residues 26-1306: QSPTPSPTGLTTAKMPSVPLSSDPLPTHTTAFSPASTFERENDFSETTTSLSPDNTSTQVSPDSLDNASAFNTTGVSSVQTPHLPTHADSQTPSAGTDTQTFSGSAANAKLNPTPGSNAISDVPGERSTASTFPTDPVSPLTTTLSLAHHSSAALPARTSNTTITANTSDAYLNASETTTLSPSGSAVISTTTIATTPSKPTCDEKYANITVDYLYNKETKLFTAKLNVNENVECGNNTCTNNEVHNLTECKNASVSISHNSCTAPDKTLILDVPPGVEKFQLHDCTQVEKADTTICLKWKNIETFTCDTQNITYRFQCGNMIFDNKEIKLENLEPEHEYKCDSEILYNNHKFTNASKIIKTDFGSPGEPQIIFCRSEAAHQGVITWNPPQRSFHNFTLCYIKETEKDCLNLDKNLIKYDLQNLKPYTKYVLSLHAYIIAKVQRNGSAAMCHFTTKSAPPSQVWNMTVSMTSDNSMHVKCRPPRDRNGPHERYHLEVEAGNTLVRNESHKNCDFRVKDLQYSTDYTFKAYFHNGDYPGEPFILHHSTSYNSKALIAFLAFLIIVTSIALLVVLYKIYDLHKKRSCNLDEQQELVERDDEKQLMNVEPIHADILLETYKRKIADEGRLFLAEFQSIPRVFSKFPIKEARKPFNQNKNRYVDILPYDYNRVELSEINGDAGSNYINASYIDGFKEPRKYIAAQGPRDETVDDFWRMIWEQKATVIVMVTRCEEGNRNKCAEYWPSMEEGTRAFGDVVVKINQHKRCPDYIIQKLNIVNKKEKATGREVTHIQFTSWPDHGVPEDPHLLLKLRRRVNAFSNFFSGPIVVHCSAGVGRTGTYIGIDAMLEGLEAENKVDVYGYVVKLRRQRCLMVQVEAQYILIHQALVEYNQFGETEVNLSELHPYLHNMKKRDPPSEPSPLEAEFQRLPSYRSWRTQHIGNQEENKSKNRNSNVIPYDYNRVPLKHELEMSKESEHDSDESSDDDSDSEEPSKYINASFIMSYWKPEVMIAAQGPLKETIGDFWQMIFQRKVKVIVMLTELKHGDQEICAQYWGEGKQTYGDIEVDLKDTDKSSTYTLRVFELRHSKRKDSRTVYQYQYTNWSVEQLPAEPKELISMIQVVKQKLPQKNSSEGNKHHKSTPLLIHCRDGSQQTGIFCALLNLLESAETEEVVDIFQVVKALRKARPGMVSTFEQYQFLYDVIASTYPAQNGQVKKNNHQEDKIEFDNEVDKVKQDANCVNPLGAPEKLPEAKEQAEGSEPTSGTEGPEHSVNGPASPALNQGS
UniProt P08887, residues 20-468: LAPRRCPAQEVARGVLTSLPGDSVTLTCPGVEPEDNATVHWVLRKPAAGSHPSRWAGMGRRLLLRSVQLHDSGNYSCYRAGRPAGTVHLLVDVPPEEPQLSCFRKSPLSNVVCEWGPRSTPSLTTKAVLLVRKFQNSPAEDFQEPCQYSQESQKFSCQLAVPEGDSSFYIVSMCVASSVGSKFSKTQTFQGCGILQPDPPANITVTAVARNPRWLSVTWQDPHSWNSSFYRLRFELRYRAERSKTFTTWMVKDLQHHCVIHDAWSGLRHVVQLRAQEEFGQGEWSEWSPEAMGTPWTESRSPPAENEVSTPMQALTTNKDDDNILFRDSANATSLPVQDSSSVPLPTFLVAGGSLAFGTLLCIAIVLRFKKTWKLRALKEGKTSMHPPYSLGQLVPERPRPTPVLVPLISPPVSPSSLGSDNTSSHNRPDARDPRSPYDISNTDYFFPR

ALFA-CD53(NG) (human) [2] = biological target: T2, ALFA-CD53(NG) (human) (UniProt P19397)
T2 sequence: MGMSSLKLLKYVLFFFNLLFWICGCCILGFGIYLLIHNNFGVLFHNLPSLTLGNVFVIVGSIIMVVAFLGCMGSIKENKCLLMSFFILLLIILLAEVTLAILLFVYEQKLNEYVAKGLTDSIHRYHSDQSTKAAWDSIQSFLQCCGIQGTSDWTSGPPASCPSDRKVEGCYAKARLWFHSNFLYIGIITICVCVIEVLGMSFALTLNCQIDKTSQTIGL

ALFA-CD37 (WT) (human) [3] = biological target: T3, ALFA-CD37 (WT) (human) (UniProt P11049)
T3 sequence (chain, N-glycosylation at N170, N183 and N188 (broad repertoire of glycoforms)): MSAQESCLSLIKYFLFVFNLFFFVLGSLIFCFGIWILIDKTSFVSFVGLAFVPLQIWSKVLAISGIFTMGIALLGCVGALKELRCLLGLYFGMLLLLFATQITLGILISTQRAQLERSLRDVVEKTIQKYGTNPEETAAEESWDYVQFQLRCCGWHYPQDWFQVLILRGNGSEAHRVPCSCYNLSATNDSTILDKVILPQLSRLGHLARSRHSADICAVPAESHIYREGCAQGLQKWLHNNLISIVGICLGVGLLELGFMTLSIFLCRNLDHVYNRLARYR

ALFA-CD37 N170Q (human) [4] = biological target: T4, ALFA-CD37 N170Q (human) (UniProt P11049)
T4 sequence: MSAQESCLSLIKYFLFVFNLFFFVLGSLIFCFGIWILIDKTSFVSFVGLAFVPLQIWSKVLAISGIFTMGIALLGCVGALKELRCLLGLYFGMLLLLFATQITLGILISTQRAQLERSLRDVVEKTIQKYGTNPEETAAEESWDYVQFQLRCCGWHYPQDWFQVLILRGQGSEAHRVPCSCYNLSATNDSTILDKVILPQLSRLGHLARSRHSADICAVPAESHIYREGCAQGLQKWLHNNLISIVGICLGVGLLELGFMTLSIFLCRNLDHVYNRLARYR

ALFA-CD37 N183Q (human) [5] = biological target: T5, ALFA-CD37 N183Q (human) (UniProt P11049)
T5 sequence: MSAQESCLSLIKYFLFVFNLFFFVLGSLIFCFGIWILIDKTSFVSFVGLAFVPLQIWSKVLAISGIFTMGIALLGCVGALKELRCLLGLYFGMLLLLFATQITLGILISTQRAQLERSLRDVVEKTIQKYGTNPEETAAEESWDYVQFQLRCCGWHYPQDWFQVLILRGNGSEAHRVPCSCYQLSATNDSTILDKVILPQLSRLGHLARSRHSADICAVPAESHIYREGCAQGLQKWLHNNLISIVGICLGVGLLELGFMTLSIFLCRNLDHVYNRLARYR

ALFA-CD37 N188Q (human) [6] = biological target: T6, ALFA-CD37 N188Q (human) (UniProt P11049)
T6 sequence: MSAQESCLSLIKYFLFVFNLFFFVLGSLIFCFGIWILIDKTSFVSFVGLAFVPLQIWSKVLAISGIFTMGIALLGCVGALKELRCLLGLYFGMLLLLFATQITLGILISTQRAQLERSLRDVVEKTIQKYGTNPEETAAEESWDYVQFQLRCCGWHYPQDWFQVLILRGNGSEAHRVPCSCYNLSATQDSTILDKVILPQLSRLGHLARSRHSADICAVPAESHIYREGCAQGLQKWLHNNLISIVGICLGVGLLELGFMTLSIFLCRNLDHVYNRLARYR

ALFA-CD37 (WT) (human) [7] = biological target: T3, ALFA-CD37 (WT) (human); remark: listed apart in the source
ALFA-CD37 N170Q (human) [8] = biological target: T4, ALFA-CD37 N170Q (human); remark: listed apart in the source
ALFA-CD37 N183Q (human) [9] = biological target: T5, ALFA-CD37 N183Q (human); remark: listed apart in the source
ALFA-CD37 N188Q (human) [10] = biological target: T6, ALFA-CD37 N188Q (human); remark: listed apart in the source
ALFA-CD53 (WT) (human) [11] = biological target: T1, ALFA-CD53 (WT) (human); remark: listed apart in the source
ALFA-CD53(NG) (human) [12] = biological target: T2, ALFA-CD53(NG) (human); remark: listed apart in the source

Measured: binding

CD45 (endogenous) (from UniProt P08575 26-1306)
binds: ALFA-CD53 (WT) (human) [1] | ALFA-CD53(NG) (human) [2]

IL-6Rα-GFP (from UniProt P08887 20-468) (receptor)
binds: ALFA-CD37 (WT) (human) [3] | ALFA-CD37 N170Q (human) [4] | ALFA-CD37 N183Q (human) [5] | ALFA-CD37 N188Q (human) [6]

B1: CD20 (endogenous) (protein, UniProt P11836 1-297)
chain: MTTPRNSVNGTFPAEPMKGPIAMQSGPKPLFRRMSSLVGPTQSFFMRESKTLGAVQIMNGLFHIALGGLLMIPAGIYAPICVTVWYPLWGGIMYIISGSLLAATEKNSRKCLVKGKMIMNSLSLFAAISGMILSIMDILNIKISHFLKMESLNFIRAHTPYINIYNCEPANPSEKNSPSTQYCYSIQSLFLGILSVMLIFAFFQELVIAGIVENEWKRTCSRPKSNIVLLSAEEKKEQTIEIKEEVVGLTETSSQPKNEEDIEIIPIQEEEEEETETNFPEPPQDQESSPIENDSSP
binds: ALFA-CD37 (WT) (human) [7] | ALFA-CD37 N170Q (human) [8] | ALFA-CD37 N183Q (human) [9] | ALFA-CD37 N188Q (human) [10] | ALFA-CD53 (WT) (human) [11] | ALFA-CD53(NG) (human) [12]

Source: article doi:10.1101/2023.03.29.534715
